Data from the supplement of paper PMC10849652.
The other results are listed elsewhere or left out.

Protein sequences, listed by entry. Tags and fused reporters are not part of them. Lines headed by an entry give the natural chain unless they say otherwise; changes in a name come on top.
UniProt O75891: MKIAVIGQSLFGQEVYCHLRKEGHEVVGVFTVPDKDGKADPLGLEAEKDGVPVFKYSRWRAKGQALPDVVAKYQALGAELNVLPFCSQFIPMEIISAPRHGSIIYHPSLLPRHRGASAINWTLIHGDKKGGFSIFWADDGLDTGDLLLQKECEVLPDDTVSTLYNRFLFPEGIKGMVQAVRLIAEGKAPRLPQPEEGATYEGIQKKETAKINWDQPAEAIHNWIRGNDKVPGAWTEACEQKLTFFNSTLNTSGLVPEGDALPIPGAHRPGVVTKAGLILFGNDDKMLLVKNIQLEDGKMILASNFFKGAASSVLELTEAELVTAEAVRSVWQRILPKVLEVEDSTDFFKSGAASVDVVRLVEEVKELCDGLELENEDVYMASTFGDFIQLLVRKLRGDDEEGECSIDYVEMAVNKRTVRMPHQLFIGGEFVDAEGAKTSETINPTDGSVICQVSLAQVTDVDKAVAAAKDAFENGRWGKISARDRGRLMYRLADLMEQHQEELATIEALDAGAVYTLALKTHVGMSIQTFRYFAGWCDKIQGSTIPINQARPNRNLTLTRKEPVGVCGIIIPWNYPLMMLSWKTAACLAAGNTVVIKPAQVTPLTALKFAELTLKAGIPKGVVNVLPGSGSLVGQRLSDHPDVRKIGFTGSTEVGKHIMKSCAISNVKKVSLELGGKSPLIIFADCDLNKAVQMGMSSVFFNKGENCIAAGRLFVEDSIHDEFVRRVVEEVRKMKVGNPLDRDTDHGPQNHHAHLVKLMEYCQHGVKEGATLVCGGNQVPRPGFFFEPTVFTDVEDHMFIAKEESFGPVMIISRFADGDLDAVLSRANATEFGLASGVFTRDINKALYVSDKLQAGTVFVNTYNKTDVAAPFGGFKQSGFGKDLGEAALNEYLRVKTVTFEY
UniProt Q96BT7: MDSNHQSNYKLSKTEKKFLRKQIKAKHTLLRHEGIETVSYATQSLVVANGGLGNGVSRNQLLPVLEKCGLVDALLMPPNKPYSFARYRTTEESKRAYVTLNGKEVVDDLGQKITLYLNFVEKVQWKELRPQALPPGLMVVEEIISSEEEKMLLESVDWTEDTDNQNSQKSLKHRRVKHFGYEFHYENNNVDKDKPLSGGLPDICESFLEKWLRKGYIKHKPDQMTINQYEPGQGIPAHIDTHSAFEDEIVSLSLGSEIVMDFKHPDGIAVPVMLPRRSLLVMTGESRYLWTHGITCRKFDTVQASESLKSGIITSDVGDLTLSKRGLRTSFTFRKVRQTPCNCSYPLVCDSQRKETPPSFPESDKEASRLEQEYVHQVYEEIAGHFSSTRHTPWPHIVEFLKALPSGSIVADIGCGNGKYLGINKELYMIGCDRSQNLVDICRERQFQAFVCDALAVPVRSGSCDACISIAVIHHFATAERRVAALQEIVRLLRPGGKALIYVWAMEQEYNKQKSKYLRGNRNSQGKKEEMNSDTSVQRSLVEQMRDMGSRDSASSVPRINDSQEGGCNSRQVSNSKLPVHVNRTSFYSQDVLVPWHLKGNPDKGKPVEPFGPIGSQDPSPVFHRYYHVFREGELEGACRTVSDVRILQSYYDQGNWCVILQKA
UniProt Q3SY69: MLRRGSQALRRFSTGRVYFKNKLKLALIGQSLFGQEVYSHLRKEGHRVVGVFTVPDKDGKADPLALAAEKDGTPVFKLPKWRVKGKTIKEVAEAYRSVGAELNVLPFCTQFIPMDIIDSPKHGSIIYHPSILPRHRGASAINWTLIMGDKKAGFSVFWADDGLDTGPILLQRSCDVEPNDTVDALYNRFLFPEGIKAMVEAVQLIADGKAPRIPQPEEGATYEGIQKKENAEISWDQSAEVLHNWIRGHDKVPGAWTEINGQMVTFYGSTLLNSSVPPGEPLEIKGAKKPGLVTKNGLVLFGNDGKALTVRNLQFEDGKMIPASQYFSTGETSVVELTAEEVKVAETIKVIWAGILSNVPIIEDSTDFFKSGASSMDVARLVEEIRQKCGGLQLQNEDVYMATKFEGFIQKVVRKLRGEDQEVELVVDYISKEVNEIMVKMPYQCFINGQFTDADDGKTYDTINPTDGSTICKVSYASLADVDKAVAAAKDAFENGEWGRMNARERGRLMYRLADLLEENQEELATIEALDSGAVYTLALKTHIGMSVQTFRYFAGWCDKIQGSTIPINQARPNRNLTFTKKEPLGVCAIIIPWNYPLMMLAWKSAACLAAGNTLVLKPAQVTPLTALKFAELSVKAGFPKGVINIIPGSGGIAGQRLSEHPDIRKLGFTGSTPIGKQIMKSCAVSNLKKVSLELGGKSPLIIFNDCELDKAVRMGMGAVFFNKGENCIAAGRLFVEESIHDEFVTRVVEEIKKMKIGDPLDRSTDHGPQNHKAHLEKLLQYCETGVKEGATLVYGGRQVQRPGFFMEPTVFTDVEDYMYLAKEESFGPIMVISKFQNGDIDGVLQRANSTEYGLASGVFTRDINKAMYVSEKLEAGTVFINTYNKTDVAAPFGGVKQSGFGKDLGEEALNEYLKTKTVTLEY
UniProt P20933: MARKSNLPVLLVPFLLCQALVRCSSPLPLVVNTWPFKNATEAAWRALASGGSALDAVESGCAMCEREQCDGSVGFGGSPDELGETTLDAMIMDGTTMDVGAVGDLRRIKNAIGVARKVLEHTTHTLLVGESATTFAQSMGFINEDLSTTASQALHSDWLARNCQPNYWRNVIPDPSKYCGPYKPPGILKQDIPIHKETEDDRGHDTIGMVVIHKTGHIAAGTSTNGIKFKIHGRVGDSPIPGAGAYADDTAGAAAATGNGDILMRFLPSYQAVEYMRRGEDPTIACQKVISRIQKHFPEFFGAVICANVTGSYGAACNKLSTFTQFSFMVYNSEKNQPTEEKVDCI
UniProt Q04828: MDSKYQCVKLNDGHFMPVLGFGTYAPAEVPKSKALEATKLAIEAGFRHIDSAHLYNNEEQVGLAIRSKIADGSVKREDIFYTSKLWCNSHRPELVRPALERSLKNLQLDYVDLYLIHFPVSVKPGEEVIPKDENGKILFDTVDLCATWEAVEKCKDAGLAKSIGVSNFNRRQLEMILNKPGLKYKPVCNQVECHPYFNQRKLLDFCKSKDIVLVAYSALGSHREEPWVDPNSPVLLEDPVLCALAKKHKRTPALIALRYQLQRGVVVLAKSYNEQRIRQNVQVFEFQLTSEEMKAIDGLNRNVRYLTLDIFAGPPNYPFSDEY
UniProt Q9BT30: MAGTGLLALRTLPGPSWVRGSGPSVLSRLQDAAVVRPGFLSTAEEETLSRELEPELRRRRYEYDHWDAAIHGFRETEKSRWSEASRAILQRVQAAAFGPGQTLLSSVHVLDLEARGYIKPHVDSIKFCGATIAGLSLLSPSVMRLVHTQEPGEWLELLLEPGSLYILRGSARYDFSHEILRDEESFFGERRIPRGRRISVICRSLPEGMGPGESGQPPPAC
UniProt Q9BS18, whole entry, looked up: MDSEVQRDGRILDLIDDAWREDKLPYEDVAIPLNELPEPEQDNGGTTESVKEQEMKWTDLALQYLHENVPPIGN
UniProt P51648: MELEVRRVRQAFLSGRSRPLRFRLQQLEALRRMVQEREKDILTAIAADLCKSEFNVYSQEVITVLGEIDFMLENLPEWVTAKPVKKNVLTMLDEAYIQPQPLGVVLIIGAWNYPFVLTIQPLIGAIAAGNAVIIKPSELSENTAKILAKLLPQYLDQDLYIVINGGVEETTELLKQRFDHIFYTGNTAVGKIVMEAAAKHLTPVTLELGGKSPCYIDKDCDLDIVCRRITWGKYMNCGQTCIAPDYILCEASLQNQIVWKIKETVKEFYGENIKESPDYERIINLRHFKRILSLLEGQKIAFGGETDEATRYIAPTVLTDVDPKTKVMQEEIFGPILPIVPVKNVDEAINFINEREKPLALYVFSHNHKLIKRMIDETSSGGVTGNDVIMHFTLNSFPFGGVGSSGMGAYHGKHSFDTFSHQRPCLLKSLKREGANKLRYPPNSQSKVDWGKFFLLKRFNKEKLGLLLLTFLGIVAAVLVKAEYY
UniProt Q6ZN18: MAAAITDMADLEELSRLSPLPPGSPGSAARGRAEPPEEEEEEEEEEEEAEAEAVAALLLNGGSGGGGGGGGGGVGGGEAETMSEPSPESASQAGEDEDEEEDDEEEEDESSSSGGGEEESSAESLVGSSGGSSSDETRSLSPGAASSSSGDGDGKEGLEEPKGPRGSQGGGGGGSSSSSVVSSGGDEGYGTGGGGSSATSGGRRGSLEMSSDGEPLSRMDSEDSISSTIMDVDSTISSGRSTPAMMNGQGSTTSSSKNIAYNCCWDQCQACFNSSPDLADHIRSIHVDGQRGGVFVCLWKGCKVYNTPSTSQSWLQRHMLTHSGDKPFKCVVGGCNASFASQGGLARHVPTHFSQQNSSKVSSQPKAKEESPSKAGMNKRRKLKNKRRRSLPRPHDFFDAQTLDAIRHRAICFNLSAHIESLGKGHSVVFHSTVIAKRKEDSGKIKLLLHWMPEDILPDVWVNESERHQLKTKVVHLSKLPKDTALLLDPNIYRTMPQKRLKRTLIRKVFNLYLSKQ
UniProt Q9NZD4: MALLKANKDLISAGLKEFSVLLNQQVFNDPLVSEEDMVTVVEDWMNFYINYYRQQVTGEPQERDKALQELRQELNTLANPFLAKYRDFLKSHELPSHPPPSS
UniProt P02760: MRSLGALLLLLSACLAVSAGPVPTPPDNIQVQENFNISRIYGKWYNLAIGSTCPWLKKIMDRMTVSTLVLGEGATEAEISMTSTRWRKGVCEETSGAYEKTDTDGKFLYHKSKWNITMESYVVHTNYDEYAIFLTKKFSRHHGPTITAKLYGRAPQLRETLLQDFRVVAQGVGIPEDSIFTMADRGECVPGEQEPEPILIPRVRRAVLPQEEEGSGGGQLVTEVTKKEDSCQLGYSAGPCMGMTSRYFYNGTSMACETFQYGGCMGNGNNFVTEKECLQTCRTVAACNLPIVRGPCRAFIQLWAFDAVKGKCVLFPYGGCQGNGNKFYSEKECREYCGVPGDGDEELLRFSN
UniProt Q9NYG5, whole entry, looked up: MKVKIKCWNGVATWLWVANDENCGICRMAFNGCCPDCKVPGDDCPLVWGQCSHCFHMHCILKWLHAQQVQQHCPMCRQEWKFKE
UniProt Q8N302: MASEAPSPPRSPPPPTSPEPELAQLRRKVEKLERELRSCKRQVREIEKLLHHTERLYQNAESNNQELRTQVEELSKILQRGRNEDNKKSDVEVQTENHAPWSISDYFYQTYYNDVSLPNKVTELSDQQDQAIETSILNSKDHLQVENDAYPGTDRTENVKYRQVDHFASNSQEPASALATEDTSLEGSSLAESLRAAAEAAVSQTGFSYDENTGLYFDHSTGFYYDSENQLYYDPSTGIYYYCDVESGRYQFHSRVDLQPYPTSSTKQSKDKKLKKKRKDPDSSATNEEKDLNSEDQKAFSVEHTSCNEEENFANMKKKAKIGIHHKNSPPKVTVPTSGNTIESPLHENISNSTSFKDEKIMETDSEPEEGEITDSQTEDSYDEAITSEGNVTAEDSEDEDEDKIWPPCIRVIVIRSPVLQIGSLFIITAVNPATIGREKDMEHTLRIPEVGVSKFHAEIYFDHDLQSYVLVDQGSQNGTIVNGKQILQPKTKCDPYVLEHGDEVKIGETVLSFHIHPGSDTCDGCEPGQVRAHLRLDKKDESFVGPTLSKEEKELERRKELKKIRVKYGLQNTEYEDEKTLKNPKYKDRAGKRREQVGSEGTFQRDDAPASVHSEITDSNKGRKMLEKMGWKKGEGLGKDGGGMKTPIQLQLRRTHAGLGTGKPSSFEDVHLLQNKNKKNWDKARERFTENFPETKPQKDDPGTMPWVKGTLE
UniProt Q6QNK2: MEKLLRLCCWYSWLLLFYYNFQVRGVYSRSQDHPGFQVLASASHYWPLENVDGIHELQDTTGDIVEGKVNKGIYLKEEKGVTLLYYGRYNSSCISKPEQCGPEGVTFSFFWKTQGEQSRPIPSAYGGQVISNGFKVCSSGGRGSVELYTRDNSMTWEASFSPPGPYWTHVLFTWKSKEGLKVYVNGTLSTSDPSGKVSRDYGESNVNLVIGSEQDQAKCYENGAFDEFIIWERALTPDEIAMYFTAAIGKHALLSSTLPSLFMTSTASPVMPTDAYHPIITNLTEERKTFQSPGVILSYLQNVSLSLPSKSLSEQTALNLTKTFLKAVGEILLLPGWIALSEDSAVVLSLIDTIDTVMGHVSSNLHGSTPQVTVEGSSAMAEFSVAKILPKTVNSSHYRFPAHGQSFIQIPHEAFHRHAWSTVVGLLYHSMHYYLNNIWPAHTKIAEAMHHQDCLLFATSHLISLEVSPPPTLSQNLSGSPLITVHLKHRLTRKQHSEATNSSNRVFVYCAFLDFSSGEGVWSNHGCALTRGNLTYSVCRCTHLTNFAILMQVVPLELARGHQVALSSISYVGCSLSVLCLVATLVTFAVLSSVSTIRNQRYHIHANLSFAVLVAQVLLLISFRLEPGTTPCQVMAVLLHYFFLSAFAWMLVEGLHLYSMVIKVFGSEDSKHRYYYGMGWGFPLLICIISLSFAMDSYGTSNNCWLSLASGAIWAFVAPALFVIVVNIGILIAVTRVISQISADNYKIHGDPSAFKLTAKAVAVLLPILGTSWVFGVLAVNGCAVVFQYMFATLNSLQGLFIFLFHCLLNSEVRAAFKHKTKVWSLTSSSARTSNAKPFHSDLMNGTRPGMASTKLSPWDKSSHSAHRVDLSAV

Columns and labels:
Assay in all cases: log2 fold change, soluble protein after heating vs DMSO (PISA); higher = thermal stabilisation; K562 cells, 10 uM, 30 min; active = over 0.2 and 3.5 SD of the protein, either way, in both replicates (recomputed)
[1] = compound: NC(=O)Nc1cc(-c2cccc(F)c2)sc1C(=O)N[C@H]1CCCNC1
In short: (§1)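 Soluble protein was defined as the supernatant after 21,000xg for 90 min. It came from K562 cells at 2×10^6 cells/mL given 10 μM compound for 30 min, heated in aliquots for 3 min across 48°C-58°C, pooled, and extracted in PBS with 0.5% NP-40 at 4°C, and was quantified by TMTpro 16plex LC-MS/MS with equalised channel sums. Thermal stability against control samples, from duplicates, is reported as log2 fold change.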

[2] = compound: NC(=O)c1cnc(N[C@@H]2CCCC[C@@H]2N)nc1Nc1cccc(-n2nccn2)c1
In short: as §1

[3] = compound: NC1(c2ccc(-c3nc4ccn5c(=O)[nH]nc5c4cc3-c3ccccc3)cc2)CCC1
In short: as §1

[4] = compound: NCC(=O)Nc1ccc(-n2nc(C(F)(F)F)cc2-c2ccc3c(ccc4ccccc43)c2)cc1
In short: as §1

entinostat = compound: Nc1ccccc1NC(=O)c1ccc(CNC(=O)OCc2cccnc2)cc1 [entinostat]
In short: as §1

vorinostat = compound: O=C(CCCCCCC(=O)Nc1ccccc1)NO [vorinostat]
In short: as §1

citarinostat = compound: O=C(CCCCCCNC(=O)c1cnc(N(c2ccccc2)c2ccccc2Cl)nc1)NO [citarinostat]
In short: as §1

silmitasertib = compound: O=C(O)c1ccc2c(c1)nc(Nc1cccc(Cl)c1)c1ccncc12 [silmitasertib]
In short: as §1

[5] = compound: c1cc(OCCN2CCCCC2)cc(-c2n[nH]c3ccc(-c4nnc[nH]4)cc23)c1
In short: as §1

entospletinib = compound: c1cn2cc(-c3ccc4cn[nH]c4c3)nc(Nc3ccc(N4CCOCC4)cc3)c2n1 [entospletinib]
In short: as §1

[6] = compound: O=C1NC(=O)C(c2cnc3ccccn23)=C1c1cn2c3c(cc(F)cc13)CN(C(=O)N1CCCCC1)CC2
In short: as §1

Measured: log2 fold change

ALDOA (UniProt P04075)
inactive: [1] 0.073 | [2] 0.072 | [3] 0.089 | [4] 0.07 | entinostat -0.084 | vorinostat -0.079 | citarinostat -0.051 | silmitasertib -0.02 | [5] -0.072 | entospletinib 0.001

ALDH2 isoform 2 (UniProt P05091)
inactive: [1] -0.345 | [2] -0.389 | [4] -0.351 | entinostat -0.14 | vorinostat 0.083 | citarinostat -0.055 | [6] 0.051 | [5] -0.36

AFF4 (UniProt Q9UHB7)
inactive: [1] -0.338 | [2] 0.034 | [3] -0.358 | entinostat 0.008 | vorinostat 0.199 | silmitasertib 0.02 | [6] 0.166

AKNA (UniProt Q7Z591)
inactive: [1] -0.069
active: entinostat 1.72

ALDH1L1 isoform 3 (UniProt O75891)
inactive: [1] -0.07 | entinostat 0.17

ALKBH8 isoform 4 (UniProt Q96BT7)
inactive: [1] -0.025 | [3] -0.054 | entinostat 0.084 | vorinostat -0.083 | citarinostat 0.039 | silmitasertib 0.055 | [6] 0.05 | [5] -0.131 | entospletinib 0.045

AHCYL2 (UniProt Q96HN2)
inactive: [1] 0.035 | [2] 0.032 | [3] 0.014 | [4] 0.01 | entinostat -0.074 | vorinostat -0.044 | citarinostat -0.078 | silmitasertib 0.035 | [6] -0.036 | [5] 0.111 | entospletinib 0.037

AFG1L (UniProt Q8WV93)
inactive: [1] -0.021 | [2] 0.008 | [3] 0.019 | [4] -0.178 | entinostat 0.095 | citarinostat -0.004 | silmitasertib 0.009 | [6] -0.009 | [5] -0.057

ADGRV1 (UniProt Q8WXG9)
inactive: [1] -0.153 | [3] 0.029 | entinostat -0.1 | vorinostat 0.248 | citarinostat -0.114 | silmitasertib 0.071 | [6] 0.04 | [5] -0.024 | entospletinib -0.068

ALDH7A1 (UniProt P49419)
inactive: [1] 0.11 | [3] -0.008 | entinostat 0.029 | vorinostat -0.075 | citarinostat -0.002 | silmitasertib 0.107 | [6] -0.053 | [5] 0.291 | entospletinib -0.009

ALAS1 (UniProt P13196)
inactive: [1] -0.244 | [2] -0.024 | [3] -0.062 | entinostat -0.226 | vorinostat -0.123 | citarinostat 0.041 | silmitasertib -0.062 | [6] -0.15 | [5] 0.085 | entospletinib 0.06

ALDH1L2 (UniProt Q3SY69)
inactive: [1] 0.015 | [2] -0.003 | [3] -0.094 | [4] 0.063 | entinostat 0 | vorinostat 0.069 | citarinostat -0.136 | silmitasertib 0.018 | [6] -0.031 | [5] -0.105 | entospletinib 0.034

ADGB (UniProt Q8N7X0)
inactive: [3] 0.193 | vorinostat -0.326 | citarinostat -0.188 | silmitasertib -0.302 | [6] -0.669 | [5] 0.142 | entospletinib 0.201

ANAPC15 isoform 2 (UniProt P60006)
inactive: [2] 0.077 | [4] -0.034 | citarinostat -0.065 | [5] -0.171 | entospletinib 0.099

AIF1L isoform 2 (UniProt Q9BQI0)
inactive: [2] 0.186 | [3] 0.159 | [4] 0.043 | vorinostat -0.008 | citarinostat 0.064 | silmitasertib 0.011 | [6] 0.389 | [5] -0.21 | entospletinib 0.202

ADD1 isoform 4 (UniProt P35611)
inactive: vorinostat 0.05 | [6] 0.027

AGAP1 (UniProt Q9UPQ3)
inactive: [4] 0.025

ADIPOR2 (UniProt Q86V24)
inactive: [2] -0.048 | [4] -0.026 | vorinostat -0.141

AIG1 (UniProt Q9NVV5)
inactive: [2] -0.253 | vorinostat 0.18

AFMID isoform 2 (UniProt Q63HM1)
inactive: [3] -0.196 | [4] -0.257 | silmitasertib 0.074

Fetched one by one from the entries so far (2):
ANAPC15 isoform 2 (UniProt P60006)
inactive: [2] 0.077 | [4] -0.034 | citarinostat -0.065 | [5] -0.171 | entospletinib 0.099

ALDH7A1 (UniProt P49419)
inactive: [1] 0.11 | [3] -0.008 | entinostat 0.029 | vorinostat -0.075 | citarinostat -0.002 | silmitasertib 0.107 | [6] -0.053 | [5] 0.291 | entospletinib -0.009

More entries.

AGA (UniProt P20933)
inactive: [3] -0.076 | vorinostat -0.027 | citarinostat -0.003 | silmitasertib 0.101 | [5] -0.016 | entospletinib -0.116

AKR1C1 (UniProt Q04828)
inactive: [3] -0.009 | silmitasertib 0.25

ALKBH7 (UniProt Q9BT30)
inactive: vorinostat 0.212

ANAPC13 (UniProt Q9BS18)
inactive: [6] -0.311

AGTRAP isoform 2 (UniProt Q6RW13)
inactive: vorinostat 0.007 | citarinostat -0.039 | [5] -0.016 | entospletinib 0.018

AKAP9 isoform 6 (UniProt Q99996)
inactive: [3] 0.007 | citarinostat -0.1 | silmitasertib -0.014 | [6] -0.218 | [5] -0.015 | entospletinib -0.119

AGTPBP1 isoform 3 (UniProt Q9UPW5)
inactive: [3] -0.623 | [4] -0.355 | silmitasertib 0.301

ALDH3A2 isoform 2 (UniProt P51648)
inactive: [4] -0.012

ADGRL1 (UniProt O94910)
inactive: vorinostat 0.074

AEBP2 (UniProt Q6ZN18)
inactive: citarinostat -0.182 | [6] 0.038 | [5] 0.078 | entospletinib -0.031

AMMECR1 (UniProt Q9Y4X0)
inactive: [2] -0.166 | [4] -0.205 | [6] 0.069

ALKBH1 (UniProt Q13686)
inactive: [2] -0.193 | [4] 0.144 | vorinostat 0.038 | [6] 0.089

AHSP (UniProt Q9NZD4)
inactive: [3] 0.044 | silmitasertib -0.088

ADCY7 (UniProt P51828)
inactive: [2] 0.164 | vorinostat 0.519 | [6] -0.063

ALMS1 (UniProt Q8TCU4)
inactive: vorinostat 0.111 | citarinostat -0.033 | [5] -0.428 | entospletinib 0

AMBP (UniProt P02760)
inactive: [3] 0.119 | [4] 0.216 | vorinostat 0.247 | citarinostat -0.04 | silmitasertib 0.125 | [5] 0.547 | entospletinib 0.322

ALG13 isoform 2 (UniProt Q9NP73)
inactive: [2] 0.077 | [3] -0.167 | [4] -0.035 | vorinostat 0.02 | silmitasertib -0.024 | [6] -0.052

ANAPC11 (UniProt Q9NYG5)
inactive: [4] 0.059 | citarinostat 0.18 | [5] -0.038 | entospletinib 0.08

ALS2 (UniProt Q96Q42)
inactive: [6] 0.309

ALG14 (UniProt Q96F25)
inactive: [2] 0.018 | [3] -0.118 | [4] -0.081 | vorinostat 0.29 | citarinostat 0.028 | silmitasertib 0.076 | [6] 0.061 | [5] -0.123

AGGF1 (UniProt Q8N302)
inactive: [3] 0.018 | silmitasertib 0.172

AKR1D1 (UniProt P51857)
inactive: [2] 0.06 | [4] -0.038 | vorinostat 0.041

ADGRD1 isoform 4 (UniProt Q6QNK2)
inactive: [2] -0.12 | [3] -0.153 | [4] -0.192 | citarinostat 0.16 | silmitasertib 0.102 | [5] -0.406 | entospletinib -0.428

AFF1 isoform 2 (UniProt P51825)
inactive: [2] -0.079 | [3] 0 | [4] -0.119 | vorinostat 0.164 | citarinostat -0.053 | silmitasertib -0.007 | [6] 0.1 | [5] -0.33 | entospletinib 0.246

AMBRA1 isoform 5 (UniProt Q9C0C7)
inactive: [2] -0.055 | [3] -0.169 | [4] -0.194 | silmitasertib -0.036 | [6] -0.188
